Source: article PMC12305169
No constants are given. Whether binding was seen depends on the method and setting. In cells and extracts the contact can be indirect. Some entries that bind do so weakly or less than the wild type. For part of these data: Tags and fused reporters may be left off the sequences shown.

By UniProt entry, the sequences of proteins in these tests, tags left out.
UniProt Q14145: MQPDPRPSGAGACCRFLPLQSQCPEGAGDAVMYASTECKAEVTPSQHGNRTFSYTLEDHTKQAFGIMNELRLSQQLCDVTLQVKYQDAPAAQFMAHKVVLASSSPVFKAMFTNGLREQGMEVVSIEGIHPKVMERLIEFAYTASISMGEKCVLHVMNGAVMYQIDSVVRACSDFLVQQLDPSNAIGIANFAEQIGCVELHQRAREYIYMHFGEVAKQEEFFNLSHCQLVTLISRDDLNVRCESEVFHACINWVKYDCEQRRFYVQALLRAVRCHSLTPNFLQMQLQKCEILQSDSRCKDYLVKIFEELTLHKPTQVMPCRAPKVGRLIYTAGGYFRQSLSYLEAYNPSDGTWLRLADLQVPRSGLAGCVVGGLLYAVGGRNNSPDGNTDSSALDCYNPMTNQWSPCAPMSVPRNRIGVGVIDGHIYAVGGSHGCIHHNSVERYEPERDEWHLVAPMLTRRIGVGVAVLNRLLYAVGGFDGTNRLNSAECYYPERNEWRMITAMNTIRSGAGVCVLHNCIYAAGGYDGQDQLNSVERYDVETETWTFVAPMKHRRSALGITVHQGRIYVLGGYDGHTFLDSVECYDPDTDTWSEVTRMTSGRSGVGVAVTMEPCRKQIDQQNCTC

Key:
[1] = biological target: Kelch-like ECH-associated protein 1 (Keap1), endogenous (human (endogenous in MDA-MB-231 and MDA-MB-468)) (UniProt Q14145); test: co-IP; endogenous immunoprecipitation from MDA-MB-231 and MDA-MB-468 cell lysates; precipitating antibody not given
[2] = biological target: T1, nuclear factor erythroid 2-related factor 2 (Nrf2), endogenous (human (endogenous in MDA-MB-231 and MDA-MB-468)) (UniProt Q16236); test: as above
T1 sequence: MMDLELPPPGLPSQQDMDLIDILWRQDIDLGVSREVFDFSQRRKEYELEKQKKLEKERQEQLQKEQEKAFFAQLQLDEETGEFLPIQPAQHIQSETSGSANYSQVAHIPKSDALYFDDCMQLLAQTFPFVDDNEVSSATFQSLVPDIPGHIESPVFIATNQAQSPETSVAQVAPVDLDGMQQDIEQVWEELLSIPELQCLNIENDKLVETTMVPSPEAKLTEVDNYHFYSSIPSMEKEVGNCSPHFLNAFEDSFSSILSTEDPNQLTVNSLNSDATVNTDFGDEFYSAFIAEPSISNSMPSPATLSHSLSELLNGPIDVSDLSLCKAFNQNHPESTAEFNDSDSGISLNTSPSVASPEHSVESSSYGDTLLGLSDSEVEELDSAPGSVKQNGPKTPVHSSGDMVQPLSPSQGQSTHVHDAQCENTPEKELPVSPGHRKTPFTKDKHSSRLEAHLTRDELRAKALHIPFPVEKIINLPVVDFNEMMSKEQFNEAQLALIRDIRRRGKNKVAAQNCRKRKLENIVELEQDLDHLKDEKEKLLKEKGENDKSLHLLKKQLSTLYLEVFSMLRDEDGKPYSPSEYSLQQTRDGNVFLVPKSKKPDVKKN

[3] = biological target: Myc-Keap1 (Keap1 WT) (human) (UniProt Q14145); test: co-IP; HEK-293T cells transfected with Flag-EDEM1 and Myc-Keap1 (WT or truncated mutants); Flag-IP and Myc-IP, immunoblot

B1: EDEM1 (ER degradation enhancing α-mannosidase-like 1), endogenous (protein, UniProt Q92611 1-657)
chain: MQWRALVLGLVLLRLGLHGVLWLVFGLGPSMGFYQRFPLSFGFQRLRSPDGPASPTSGPVGRPGGVSGPSWLQPPGTGAAQSPRKAPRRPGPGMCGPANWGYVLGGRGRGPDEYEKRYSGAFPPQLRAQMRDLARGMFVFGYDNYMAHAFPQDELNPIHCRGRGPDRGDPSNLNINDVLGNYSLTLVDALDTLAIMGNSSEFQKAVKLVINTVSFDKDSTVQVFEATIRVLGSLLSAHRIITDSKQPFGDMTIKDYDNELLYMAHDLAVRLLPAFENTKTGIPYPRVNLKTGVPPDTNNETCTAGAGSLLVEFGILSRLLGDSTFEWVARRAVKALWNLRSNDTGLLGNVVNIQTGHWVGKQSGLGAGLDSFYEYLLKSYILFGEKEDLEMFNAAYQSIQNYLRRGREACNEGEGDPPLYVNVNMFSGQLMNTWIDSLQAFFPGLQVLIGDVEDAICLHAFYYAIWKRYGALPERYNWQLQAPDVLFYPLRPELVESTYLLYQATKNPFYLHVGMDILQSLEKYTKVKCGYATLHHVIDKSTEDRMESFFLSETCKYLYLLFDEDNPVHKSGTRYMFTTEGHIVSVDEHLRELPWKEFFSEEGGQDQGGKSVHRPKPHELKVINSSSNCNRVPDERRYSLPLKSIYMRQIDQMVGLI
binding [1]: binds
binding [2]: no binding

B2: Flag-EDEM1 (human) (protein, UniProt Q92611 1-657)
chain: MQWRALVLGLVLLRLGLHGVLWLVFGLGPSMGFYQRFPLSFGFQRLRSPDGPASPTSGPVGRPGGVSGPSWLQPPGTGAAQSPRKAPRRPGPGMCGPANWGYVLGGRGRGPDEYEKRYSGAFPPQLRAQMRDLARGMFVFGYDNYMAHAFPQDELNPIHCRGRGPDRGDPSNLNINDVLGNYSLTLVDALDTLAIMGNSSEFQKAVKLVINTVSFDKDSTVQVFEATIRVLGSLLSAHRIITDSKQPFGDMTIKDYDNELLYMAHDLAVRLLPAFENTKTGIPYPRVNLKTGVPPDTNNETCTAGAGSLLVEFGILSRLLGDSTFEWVARRAVKALWNLRSNDTGLLGNVVNIQTGHWVGKQSGLGAGLDSFYEYLLKSYILFGEKEDLEMFNAAYQSIQNYLRRGREACNEGEGDPPLYVNVNMFSGQLMNTWIDSLQAFFPGLQVLIGDVEDAICLHAFYYAIWKRYGALPERYNWQLQAPDVLFYPLRPELVESTYLLYQATKNPFYLHVGMDILQSLEKYTKVKCGYATLHHVIDKSTEDRMESFFLSETCKYLYLLFDEDNPVHKSGTRYMFTTEGHIVSVDEHLRELPWKEFFSEEGGQDQGGKSVHRPKPHELKVINSSSNCNRVPDERRYSLPLKSIYMRQIDQMVGLI
binding [3]: binds
